Changes are numbered by the printed parent chain. No constants are given. Whether binding was seen depends on the method and setting. Binding can be weak; no strength is given. Sequences can lack the tags named with a protein.
Tests used:
Test in all cases: two-hybrid; bacterial two-hybrid in E. coli BTH101; signal quantified by β-galactosidase assay (ONPG, ΔOD420/min/ml) of cultures grown 16 h at 30°C with IPTG
[1] = biological target: T1, ϕC31 IntE476G fused to T18 (Streptomyces phage ϕC31) (UniProt Q9T221)
T1 sequence: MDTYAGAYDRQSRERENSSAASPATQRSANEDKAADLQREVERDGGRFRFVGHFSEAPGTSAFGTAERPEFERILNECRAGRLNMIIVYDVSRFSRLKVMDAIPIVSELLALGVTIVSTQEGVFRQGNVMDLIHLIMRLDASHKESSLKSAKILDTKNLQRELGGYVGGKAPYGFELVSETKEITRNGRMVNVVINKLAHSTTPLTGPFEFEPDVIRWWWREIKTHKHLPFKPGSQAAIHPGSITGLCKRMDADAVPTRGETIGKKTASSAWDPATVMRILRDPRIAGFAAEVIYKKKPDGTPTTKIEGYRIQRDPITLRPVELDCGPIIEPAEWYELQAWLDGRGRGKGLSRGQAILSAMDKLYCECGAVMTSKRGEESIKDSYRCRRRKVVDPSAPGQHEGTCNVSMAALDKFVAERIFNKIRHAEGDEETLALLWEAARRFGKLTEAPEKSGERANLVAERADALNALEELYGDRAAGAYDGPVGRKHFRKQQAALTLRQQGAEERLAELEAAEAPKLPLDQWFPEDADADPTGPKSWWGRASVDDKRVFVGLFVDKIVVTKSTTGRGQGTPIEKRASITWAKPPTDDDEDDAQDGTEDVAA

[2] = biological target: T2, wild-type ϕC31 integrase fused to T18 (Int-T18 fusion, pEY111) (Streptomyces phage ϕC31) (UniProt Q9T221)
T2 sequence: T1 sequence with G476E

[3] = biological target: T3, ϕC31 IntI582L fused to T18 (Streptomyces phage ϕC31) (UniProt Q9T221)
T3 sequence: T1 sequence with G476E, I582L

[4] = biological target: T4, ϕC31 IntW526F fused to T18 (Streptomyces phage ϕC31) (UniProt Q9T221)
T4 sequence: T1 sequence with G476E, W526F

Measured: binding

T25-ϕC31 gp3 (wild type) fusion protein (Streptomyces phage ϕC31)
binds: all assays above

From paper PMC5814800
